Laboratory results from patent US20250195477A1, “DEUTERATED IDAZOXAN AND METHODS OF USE THEREOF” (Terran Biosciences Inc., priority 2022, published 2025).

Assay: Metabolic stability in human liver microsomes
Assay type: in vitro ADME
Settings: pH 7.4; pooled human liver microsomes 0.5 mg/mL, test compound 3 μM, NADPH, 0, 5, 15, 30, 45 min, LC-MS/MS; read-out: CLint (μL/min/mg protein)

Row | SMILES | microsomal CLint at 3 μM [µL/min/mg]
1 | CN1C(=O)CN=C(c2ccccc2)c2cc(Cl)ccc21 [Diazepam, reference compound] | 89.4
2 | CN(C)CCOC(c1ccccc1)c1ccccc1 [Diphenhydramine, reference compound] | 690
